Article PMC3796444 (PLoS ONE, 2013)
No constants are given. Whether binding was seen depends on the method and setting. Some entries that bind do so weakly or less than the wild type.

Experiments:
Experiment in all cases: dynamic light scattering; holo-AGT, 5 µM AGT (in subunit) and 50 µM PLP, 20 mM Na-Hepes, 200 mM NaCl pH 7.4, 25°C; both purified
[1] = molecular target: alanine:glyoxylate aminotransferase, wild type (major allele), recombinant His-tagged (human) (UniProt P21549)
[2] = molecular target: alanine:glyoxylate aminotransferase p.P11L, recombinant His-tagged (human) (UniProt P21549)
[3] = molecular target: alanine:glyoxylate aminotransferase minor allele (p.P11L/I340M), recombinant His-tagged (human) (UniProt P21549)
[4] = molecular target: alanine:glyoxylate aminotransferase p.H83R on the minor allele, recombinant His-tagged (human) (UniProt P21549)
[5] = molecular target: alanine:glyoxylate aminotransferase p.F152I on the minor allele, recombinant His-tagged (human) (UniProt P21549)
[6] = molecular target: alanine:glyoxylate aminotransferase p.G170R on the minor allele, recombinant His-tagged (human) (UniProt P21549)
[7] = molecular target: alanine:glyoxylate aminotransferase p.R197Q on the minor allele, recombinant His-tagged (human) (UniProt P21549)
[8] = molecular target: alanine:glyoxylate aminotransferase p.I244T on the minor allele, recombinant His-tagged (human) (UniProt P21549)
[9] = molecular target: alanine:glyoxylate aminotransferase p.A295T on the minor allele, recombinant His-tagged (human) (UniProt P21549)
[10] = molecular target: alanine:glyoxylate aminotransferase p.P319L on the minor allele, recombinant His-tagged (human) (UniProt P21549)
[11] = molecular target: alanine:glyoxylate aminotransferase p.A368T on the minor allele, recombinant His-tagged (human) (UniProt P21549)

alanine:glyoxylate aminotransferase, wild type (major allele), recombinant His-tagged (from UniProt P21549 1-392) (enzyme)
binding [1]: binds

B1: alanine:glyoxylate aminotransferase p.P11L, recombinant His-tagged (enzyme, human, UniProt P21549 1-392, looked up)
chain: MASHKLLVTPLKALLKPLSIPNQLLLGPGPSNLPPRIMAAGGLQMIGSMSKDMYQIMDEIKEGIQYVFQTRNPLTLVISGSGHCALEAALVNVLEPGDSFLVGANGIWGQRAVDIGERIGARVHPMTKDPGGHYTLQEVEEGLAQHKPVLLFLTHGESSTGVLQPLDGFGELCHRYKCLLLVDSVASLGGTPLYMDRQGIDILYSGSQKALNAPPGTSLISFSDKAKKKMYSRKTKPFSFYLDIKWLANFWGCDDQPRMYHHTIPVISLYSLRESLALIAEQGLENSWRQHREAAAYLHGRLQALGLQLFVKDPALRLPTVTTVAVPAGYDWRDIVSYVIDHFDIEIMGGLGPSTGKVLRIGLLGCNATRENVDRVTEALRAALQHCPKKKL
notes: alanine:glyoxylate aminotransferase (AGT), human, polymorphic variant p.P11L; source: E. coli BL21 (pCOLDII), purified (IMAC, SEC)
binding [2]: binds

B2: alanine:glyoxylate aminotransferase minor allele (p.P11L/I340M), recombinant His-tagged (enzyme, human, UniProt P21549 1-392, looked up)
chain: MASHKLLVTPLKALLKPLSIPNQLLLGPGPSNLPPRIMAAGGLQMIGSMSKDMYQIMDEIKEGIQYVFQTRNPLTLVISGSGHCALEAALVNVLEPGDSFLVGANGIWGQRAVDIGERIGARVHPMTKDPGGHYTLQEVEEGLAQHKPVLLFLTHGESSTGVLQPLDGFGELCHRYKCLLLVDSVASLGGTPLYMDRQGIDILYSGSQKALNAPPGTSLISFSDKAKKKMYSRKTKPFSFYLDIKWLANFWGCDDQPRMYHHTIPVISLYSLRESLALIAEQGLENSWRQHREAAAYLHGRLQALGLQLFVKDPALRLPTVTTVAVPAGYDWRDIVSYVMDHFDIEIMGGLGPSTGKVLRIGLLGCNATRENVDRVTEALRAALQHCPKKKL
notes: alanine:glyoxylate aminotransferase (AGT), human, minor allele; also called AGT LM; LM; source: E. coli BL21 (pCOLDII), purified (IMAC, SEC)
binding [3]: binds

B3: alanine:glyoxylate aminotransferase p.H83R on the minor allele, recombinant His-tagged (enzyme, human, UniProt P21549 1-392, looked up)
chain: MASHKLLVTPLKALLKPLSIPNQLLLGPGPSNLPPRIMAAGGLQMIGSMSKDMYQIMDEIKEGIQYVFQTRNPLTLVISGSGRCALEAALVNVLEPGDSFLVGANGIWGQRAVDIGERIGARVHPMTKDPGGHYTLQEVEEGLAQHKPVLLFLTHGESSTGVLQPLDGFGELCHRYKCLLLVDSVASLGGTPLYMDRQGIDILYSGSQKALNAPPGTSLISFSDKAKKKMYSRKTKPFSFYLDIKWLANFWGCDDQPRMYHHTIPVISLYSLRESLALIAEQGLENSWRQHREAAAYLHGRLQALGLQLFVKDPALRLPTVTTVAVPAGYDWRDIVSYVMDHFDIEIMGGLGPSTGKVLRIGLLGCNATRENVDRVTEALRAALQHCPKKKL
notes: alanine:glyoxylate aminotransferase (AGT), human, PH1 mutation p.H83R in the minor allele; source: E. coli BL21 (pCOLDII), purified (IMAC, SEC)
binding [4]: binds

B4: alanine:glyoxylate aminotransferase p.F152I on the minor allele, recombinant His-tagged (enzyme, human, UniProt P21549 1-392, looked up)
chain: MASHKLLVTPLKALLKPLSIPNQLLLGPGPSNLPPRIMAAGGLQMIGSMSKDMYQIMDEIKEGIQYVFQTRNPLTLVISGSGHCALEAALVNVLEPGDSFLVGANGIWGQRAVDIGERIGARVHPMTKDPGGHYTLQEVEEGLAQHKPVLLILTHGESSTGVLQPLDGFGELCHRYKCLLLVDSVASLGGTPLYMDRQGIDILYSGSQKALNAPPGTSLISFSDKAKKKMYSRKTKPFSFYLDIKWLANFWGCDDQPRMYHHTIPVISLYSLRESLALIAEQGLENSWRQHREAAAYLHGRLQALGLQLFVKDPALRLPTVTTVAVPAGYDWRDIVSYVMDHFDIEIMGGLGPSTGKVLRIGLLGCNATRENVDRVTEALRAALQHCPKKKL
notes: alanine:glyoxylate aminotransferase (AGT), human, PH1 mutation p.F152I in the minor allele; source: E. coli BL21 (pCOLDII), purified (IMAC, SEC)
binding [5]: binds

B5: alanine:glyoxylate aminotransferase p.G170R on the minor allele, recombinant His-tagged (enzyme, human, UniProt P21549 1-392, looked up)
chain: MASHKLLVTPLKALLKPLSIPNQLLLGPGPSNLPPRIMAAGGLQMIGSMSKDMYQIMDEIKEGIQYVFQTRNPLTLVISGSGHCALEAALVNVLEPGDSFLVGANGIWGQRAVDIGERIGARVHPMTKDPGGHYTLQEVEEGLAQHKPVLLFLTHGESSTGVLQPLDGFRELCHRYKCLLLVDSVASLGGTPLYMDRQGIDILYSGSQKALNAPPGTSLISFSDKAKKKMYSRKTKPFSFYLDIKWLANFWGCDDQPRMYHHTIPVISLYSLRESLALIAEQGLENSWRQHREAAAYLHGRLQALGLQLFVKDPALRLPTVTTVAVPAGYDWRDIVSYVMDHFDIEIMGGLGPSTGKVLRIGLLGCNATRENVDRVTEALRAALQHCPKKKL
notes: alanine:glyoxylate aminotransferase (AGT), human, PH1 mutation p.G170R in the minor allele (p.P11L, p.G170R and p.I340M in cis); source: E. coli BL21 (pCOLDII), purified (IMAC, SEC)
binding [6]: binds

B6: alanine:glyoxylate aminotransferase p.R197Q on the minor allele, recombinant His-tagged (enzyme, human, UniProt P21549 1-392, looked up)
chain: MASHKLLVTPLKALLKPLSIPNQLLLGPGPSNLPPRIMAAGGLQMIGSMSKDMYQIMDEIKEGIQYVFQTRNPLTLVISGSGHCALEAALVNVLEPGDSFLVGANGIWGQRAVDIGERIGARVHPMTKDPGGHYTLQEVEEGLAQHKPVLLFLTHGESSTGVLQPLDGFGELCHRYKCLLLVDSVASLGGTPLYMDQQGIDILYSGSQKALNAPPGTSLISFSDKAKKKMYSRKTKPFSFYLDIKWLANFWGCDDQPRMYHHTIPVISLYSLRESLALIAEQGLENSWRQHREAAAYLHGRLQALGLQLFVKDPALRLPTVTTVAVPAGYDWRDIVSYVMDHFDIEIMGGLGPSTGKVLRIGLLGCNATRENVDRVTEALRAALQHCPKKKL
notes: alanine:glyoxylate aminotransferase (AGT), human, rare variant p.R197Q in the minor allele; source: E. coli BL21 (pCOLDII), purified (IMAC, SEC)
binding [7]: binds

B7: alanine:glyoxylate aminotransferase p.I244T on the minor allele, recombinant His-tagged (enzyme, human, UniProt P21549 1-392, looked up)
chain: MASHKLLVTPLKALLKPLSIPNQLLLGPGPSNLPPRIMAAGGLQMIGSMSKDMYQIMDEIKEGIQYVFQTRNPLTLVISGSGHCALEAALVNVLEPGDSFLVGANGIWGQRAVDIGERIGARVHPMTKDPGGHYTLQEVEEGLAQHKPVLLFLTHGESSTGVLQPLDGFGELCHRYKCLLLVDSVASLGGTPLYMDRQGIDILYSGSQKALNAPPGTSLISFSDKAKKKMYSRKTKPFSFYLDTKWLANFWGCDDQPRMYHHTIPVISLYSLRESLALIAEQGLENSWRQHREAAAYLHGRLQALGLQLFVKDPALRLPTVTTVAVPAGYDWRDIVSYVMDHFDIEIMGGLGPSTGKVLRIGLLGCNATRENVDRVTEALRAALQHCPKKKL
notes: alanine:glyoxylate aminotransferase (AGT), human, PH1 mutation p.I244T in the minor allele (p.P11L, p.I244T and p.I340M in cis); source: E. coli BL21 (pCOLDII), purified (IMAC, SEC)
binding [8]: binds

B8: alanine:glyoxylate aminotransferase p.A295T on the minor allele, recombinant His-tagged (enzyme, human, UniProt P21549 1-392, looked up)
chain: MASHKLLVTPLKALLKPLSIPNQLLLGPGPSNLPPRIMAAGGLQMIGSMSKDMYQIMDEIKEGIQYVFQTRNPLTLVISGSGHCALEAALVNVLEPGDSFLVGANGIWGQRAVDIGERIGARVHPMTKDPGGHYTLQEVEEGLAQHKPVLLFLTHGESSTGVLQPLDGFGELCHRYKCLLLVDSVASLGGTPLYMDRQGIDILYSGSQKALNAPPGTSLISFSDKAKKKMYSRKTKPFSFYLDIKWLANFWGCDDQPRMYHHTIPVISLYSLRESLALIAEQGLENSWRQHREATAYLHGRLQALGLQLFVKDPALRLPTVTTVAVPAGYDWRDIVSYVMDHFDIEIMGGLGPSTGKVLRIGLLGCNATRENVDRVTEALRAALQHCPKKKL
notes: alanine:glyoxylate aminotransferase (AGT), human, rare variant p.A295T in the minor allele; source: E. coli BL21 (pCOLDII), purified (IMAC, SEC)
binding [9]: binds

B9: alanine:glyoxylate aminotransferase p.P319L on the minor allele, recombinant His-tagged (enzyme, human, UniProt P21549 1-392, looked up)
chain: MASHKLLVTPLKALLKPLSIPNQLLLGPGPSNLPPRIMAAGGLQMIGSMSKDMYQIMDEIKEGIQYVFQTRNPLTLVISGSGHCALEAALVNVLEPGDSFLVGANGIWGQRAVDIGERIGARVHPMTKDPGGHYTLQEVEEGLAQHKPVLLFLTHGESSTGVLQPLDGFGELCHRYKCLLLVDSVASLGGTPLYMDRQGIDILYSGSQKALNAPPGTSLISFSDKAKKKMYSRKTKPFSFYLDIKWLANFWGCDDQPRMYHHTIPVISLYSLRESLALIAEQGLENSWRQHREAAAYLHGRLQALGLQLFVKDPALRLLTVTTVAVPAGYDWRDIVSYVMDHFDIEIMGGLGPSTGKVLRIGLLGCNATRENVDRVTEALRAALQHCPKKKL
notes: alanine:glyoxylate aminotransferase (AGT), human, PH1 mutation p.P319L in the minor allele; source: E. coli BL21 (pCOLDII), purified (IMAC, SEC)
binding [10]: binds

B10: alanine:glyoxylate aminotransferase p.A368T on the minor allele, recombinant His-tagged (enzyme, human, UniProt P21549 1-392, looked up)
chain: MASHKLLVTPLKALLKPLSIPNQLLLGPGPSNLPPRIMAAGGLQMIGSMSKDMYQIMDEIKEGIQYVFQTRNPLTLVISGSGHCALEAALVNVLEPGDSFLVGANGIWGQRAVDIGERIGARVHPMTKDPGGHYTLQEVEEGLAQHKPVLLFLTHGESSTGVLQPLDGFGELCHRYKCLLLVDSVASLGGTPLYMDRQGIDILYSGSQKALNAPPGTSLISFSDKAKKKMYSRKTKPFSFYLDIKWLANFWGCDDQPRMYHHTIPVISLYSLRESLALIAEQGLENSWRQHREAAAYLHGRLQALGLQLFVKDPALRLPTVTTVAVPAGYDWRDIVSYVMDHFDIEIMGGLGPSTGKVLRIGLLGCNTTRENVDRVTEALRAALQHCPKKKL
notes: alanine:glyoxylate aminotransferase (AGT), human, PH1 mutation p.A368T in the minor allele; source: E. coli BL21 (pCOLDII), purified (IMAC, SEC)
binding [11]: binds
